According to article PMC13386968:
These are yes or no findings as the source states them, for the method shown. In cells and extracts the contact can be indirect. Some results given as binding are weak or reduced against the parent protein; the word gives no strength.

Sequences of proteins named here, by UniProt entry; tags and fusion partners are left off. A change or cut given only in a name is not applied to a line headed by its entry.
UniProt Q01628: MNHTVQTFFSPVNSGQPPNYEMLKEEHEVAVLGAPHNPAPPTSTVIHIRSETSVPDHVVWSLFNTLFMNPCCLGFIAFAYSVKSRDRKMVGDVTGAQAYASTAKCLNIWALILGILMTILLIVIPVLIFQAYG
UniProt Q01629: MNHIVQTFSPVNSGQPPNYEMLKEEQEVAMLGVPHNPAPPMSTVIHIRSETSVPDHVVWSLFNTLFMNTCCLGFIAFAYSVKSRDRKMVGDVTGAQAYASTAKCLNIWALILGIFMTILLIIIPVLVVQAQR
UniProt P13164: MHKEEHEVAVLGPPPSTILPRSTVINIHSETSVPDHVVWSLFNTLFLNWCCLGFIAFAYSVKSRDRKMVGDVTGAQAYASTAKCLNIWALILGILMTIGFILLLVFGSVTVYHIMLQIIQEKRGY

Legend:
[1] = biological target: FLAG-IFITM3 G95L (human) (UniProt Q01628); test: proximity ligation; HEK293T transiently transfected with FLAG-IFITM1 WT and FLAG-IFITM3 WT or G95L, fixed and permeabilized; anti-IFITM1 and anti-IFITM3; confocal microscopy
[2] = biological target: FLAG-IFITM3 WT (human) (UniProt Q01628); test: as above
[3] = biological target: endogenous IFITM3 (human (endogenous in HEK293T, HeLa and primary human nasal epithelial cells)) (UniProt Q01628); test: proximity ligation; HeLa and HeLa IFITM3 knockout cells, fixed and permeabilized; anti-IFITM1 and anti-IFITM3; endogenous proteins
[4] = biological target: endogenous IFITM3 (human (endogenous in HEK293T, HeLa and primary human nasal epithelial cells)) (UniProt Q01628); test: co-IP; anti-IFITM3 immunoprecipitation from lysates of HeLa untreated or treated with 100 units of IFNb for 18 h; immunoblot with anti-IFITM1
[5] = biological target: endogenous IFITM3 (human (endogenous in HEK293T, HeLa and primary human nasal epithelial cells)) (UniProt Q01628); test: co-IP; IFITM3 immunoprecipitated from primary human nasal epithelial cells, interferon-treated; endogenous proteins (Fig. S2A)
[6] = biological target: endogenous IFITM2 (human (endogenous in HeLa)) (UniProt Q01629); test: co-IP; anti-IFITM2 immunoprecipitation from HeLa cells, untreated or interferon-treated; endogenous proteins (Fig. S1B)
[7] = biological target: endogenous IFITM3 (human (endogenous in HEK293T, HeLa and primary human nasal epithelial cells)) (UniProt Q01628); test: proximity ligation; HEK293T untreated or treated with 100 units of IFNb for 18 h, fixed and permeabilized; anti-IFITM1 and anti-IFITM3; endogenous proteins
[8] = biological target: FLAG-IFITM3 G95L (human) (UniProt Q01628); test: co-IP; anti-FLAG immunoprecipitation from lysates of HEK293T stably expressing FLAG-IFITM3 WT or G95L; immunoblot with anti-IFITM1; 1% Triton X-100, 150 mM NaCl, 4°C
[9] = biological target: FLAG-IFITM3 WT (human) (UniProt Q01628); test: as above
[10] = biological target: endogenous IFITM3 (human (endogenous in HEK293T, HeLa and primary human nasal epithelial cells)) (UniProt Q01628); test: co-IP; anti-IFITM3 immunoprecipitation from lysates of HEK293T untreated or treated with 100 units of IFNb for 18 h; immunoblot with anti-IFITM1

Measured: binding

FLAG-IFITM1 WT (from UniProt P13164 1-125)
binds: [1] | [2]

endogenous IFITM1 (from UniProt P13164 1-125)
not listed: [1] | [2]
binds: all other assays above

endogenous IFITM3 (from UniProt Q01628 1-133)
binds: [6]
